# Measurements reported in PubChem BioAssay AID588674 (Broad Institute, 2011).
# In all, about 360,000 compounds went through this assay and about 1,800 (0.5%) were called active. Inconclusive results, whose numbers are uncertain, are shown with a selection of clear calls.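 The calls were made as follows: active = mean inhibition of at least 75% with every replicate also reaching 75%; inconclusive = mean inhibition at least 75% but some replicate below; inactive = mean inhibition below 75%.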
# Assay: Shn3 3'UTR reporter decrease in osteoblasts – cell-based, Clone20 osteoblasts, firefly luciferase, set 2, Schnurri-3 inhibitor project, primary screen (AID 588674);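 also: 0% = median of neutral control wells and 100% = pilot-screen positive control compound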
# Conditions: Clone20 osteoblast Shn3 3'UTR firefly luciferase, 24 h; at 12.5 µM; stronger effect = higher value
row,SMILES,inhibition
1,COc1ccc(Oc2cc(NC(=O)c3nn(C)cc3[N+](=O)[O-])cc([N+](=O)[O-])c2)cc1,inconclusive: 88%
2,O=C1NC2C(=CC(O)C(O)C2O)c2cc3c(c(O)c21)OCO3 (centres undefined),active: 96.1%
3,O=C(c1ccccc1)C(CN1CCCC1)c1ccccc1 (centres undefined),inconclusive: 88.9%
4,COC(=O)C1=C(c2ccc(OCc3ccccc3)cc2)C[C@@H]2CC[C@H]1N2C(=O)NCc1ccc(OC)c(OC)c1,inconclusive: 86.7%
5,Cc1ccc(N2C(=O)NC(=O)/C(=C\C=C\c3ccco3)C2=O)cc1C,inconclusive: 86%
6,Cc1cc([N+](=O)[O-])c2ccccc2[n+]1[O-],inconclusive: 88.9%
7,CCC(C)C1NC(=O)C(NC(=O)C(CC(C)C)N(C)C(=O)C2CCCN2C(=O)C(C)O)C(C)OC(=O)C(Cc2ccc(OC)cc2)N(C)C(=O)C2CCCN2C(=O)C(CC(C)C)NC(=O)[C@H](C)C(=O)[C@H](C(C)C)OC(=O)CC1O (some centres undefined),active: 99.2%
8,S=C1NCCN1,inconclusive: 87.1%
9,COc1ccc(-c2n(-c3ccccn3)c3ccccc3[n+]2-c2ccccn2)cc1,inactive: 13.9%
10,CC(=O)c1cn(Cc2ccccc2F)c2ccccc12,inconclusive: 87.4%
11,C[C@H]1[C@@H](OS(=O)(=O)O)C[C@@H]2C[C@H]([C@@H](O)c3cc(=O)[nH]c(=O)[nH]3)NC3=NC[C@H]1N32,active: 97.9%
12,CCn1c(NN=O)nc2ccccc21,inconclusive: 87.3%
13,COc1cccc2c1O[C@H]1C(=O)CC[C@H]3CN(C)CCC231 (some centres undefined),active: 89.4%
14,CCCCCn1c(=O)c(C(=O)NC(C)c2ccccc2)c(O)c2ccccc21 (centres undefined),inconclusive: 87.2%
15,CCOc1cccc(CNCCc2c(C)[nH]c3ccc(OC(F)(F)F)cc23)c1O,inconclusive: 85.9%
16,COC(=O)C1=C(C(=O)OC)SC2(S1)C(C(=O)OC)=C(C(=O)OC)Sc1c2ssc1=O,active: 97.6%
17,COC(=O)C1=C(c2ccc(OCc3ccccc3)cc2)C[C@@H]2CC[C@H]1N2C(=O)NCc1ccc(C(C)(C)C)cc1,inconclusive: 86.3%
18,COc1cccc2c1cc([N+](=O)[O-])c1c(C(=O)O)cc3c(c12)OCO3,inactive: 10.9%
19,CCCCCCCCn1sccc1=O,inconclusive: 85%

# Three entries already listed, ordered by formula weight, descending:
row,SMILES,inhibition
17,COC(=O)C1=C(c2ccc(OCc3ccccc3)cc2)C[C@@H]2CC[C@H]1N2C(=O)NCc1ccc(C(C)(C)C)cc1,inconclusive: 86.3%
1,COc1ccc(Oc2cc(NC(=O)c3nn(C)cc3[N+](=O)[O-])cc([N+](=O)[O-])c2)cc1,inconclusive: 88%
13,COc1cccc2c1O[C@H]1C(=O)CC[C@H]3CN(C)CCC231 (some centres undefined),active: 89.4%
